According to patent US20170342169A1:
No constants are given. Whether binding was seen depends on the method and setting. Binding calls can cover weak binding; strength is not graded here. One block for each binder: values may come before it.

Molecular target: cynomolgus 4-1BB (cynomolgus)
Assay: SPR

binding: binds
B1: TABBY107-rIgG1 (antibody, V domains shown)
VH: QVKLVQSGAALVKPGASVKMSCKASDYTFNDYWVSWVKQRHGESLEWIGEIYPNSGATNFNGKFRGKATLTVDNPTSTAYMELSRLTSEDSAIYYCTREYTRDWFAYWGQGTLVTVSS
VL: DVVLTQTPSILSATIGQSVSISCRSSQSLLDSDGNTYLYWFLQRPGQSPQRLIYLVSNLGSGVPNRFSGSGSGTDFTLKISGVEAEDLGIYYCMQPTHAPYTFGAGTKLELK

binding: binds
B2: TABBY106-rIgG1 (antibody, V domains shown)
VH: QVQLQQSGAELAKPGTSVKLSCKASGYTFTSYYIYWVKQRPGQGLEWIGNIWPGNGGTFYGEKFMGKATFTADTSSSTAYMLLGSLTPEDSAYYFCARRPDYSGDDYFDYWGQGVLVTVSS
VL: QVVLTQPKSVSTSLKSTVKLSCKLNSGNIGSYYVHWYQQHAGRSPTTMIYRDDKRPDGVPDRFSGSIDSSSNSAFLTINNVQTEDDAIYFCHSYDSTITPVFGGGTKLTVL
